Measured values as given in the supplement of paper PMC12823440, “Inhibitors supercharge kinase turnover through native proteolytic circuits” (Nature, 2025).
Some of the results follow. Hit calls seldom repeat between salt and free forms of one compound.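 Kinases were expressed as nanoluciferase fusions in K562 cells and luminescence was read every 4 h between 2 and 18 h as percent of control, DMSO set to 100% and a positive control to 0%. A time point counts as decreased when the signal drops significantly (2 sigma). The hit call is the authors' own, does not follow from the count of time points alone, and its rule is not shown.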

By UniProt entry, the sequences of proteins in these tests, tags left out. Where a name states a change or a piece, a line headed by the entry shows the natural chain unless it says otherwise.
UniProt Q06187: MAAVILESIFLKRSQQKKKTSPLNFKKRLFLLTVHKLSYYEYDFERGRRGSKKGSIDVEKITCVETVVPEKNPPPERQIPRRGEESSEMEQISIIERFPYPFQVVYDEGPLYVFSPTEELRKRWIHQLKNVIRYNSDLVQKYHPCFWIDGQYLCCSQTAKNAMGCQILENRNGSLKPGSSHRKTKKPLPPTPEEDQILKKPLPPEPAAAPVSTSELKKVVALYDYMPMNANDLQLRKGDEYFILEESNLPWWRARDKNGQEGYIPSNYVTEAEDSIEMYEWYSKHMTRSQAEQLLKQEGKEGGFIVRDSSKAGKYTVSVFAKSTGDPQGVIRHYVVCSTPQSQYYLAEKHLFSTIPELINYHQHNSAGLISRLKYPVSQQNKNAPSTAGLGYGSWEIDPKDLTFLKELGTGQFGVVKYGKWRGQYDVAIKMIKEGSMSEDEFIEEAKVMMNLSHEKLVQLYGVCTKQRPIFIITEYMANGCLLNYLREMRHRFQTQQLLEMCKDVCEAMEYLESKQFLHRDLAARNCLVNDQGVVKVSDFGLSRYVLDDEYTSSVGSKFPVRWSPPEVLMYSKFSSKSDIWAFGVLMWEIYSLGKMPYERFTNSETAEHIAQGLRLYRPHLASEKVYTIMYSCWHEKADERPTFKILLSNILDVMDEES
UniProt Q9UQM7, whole entry: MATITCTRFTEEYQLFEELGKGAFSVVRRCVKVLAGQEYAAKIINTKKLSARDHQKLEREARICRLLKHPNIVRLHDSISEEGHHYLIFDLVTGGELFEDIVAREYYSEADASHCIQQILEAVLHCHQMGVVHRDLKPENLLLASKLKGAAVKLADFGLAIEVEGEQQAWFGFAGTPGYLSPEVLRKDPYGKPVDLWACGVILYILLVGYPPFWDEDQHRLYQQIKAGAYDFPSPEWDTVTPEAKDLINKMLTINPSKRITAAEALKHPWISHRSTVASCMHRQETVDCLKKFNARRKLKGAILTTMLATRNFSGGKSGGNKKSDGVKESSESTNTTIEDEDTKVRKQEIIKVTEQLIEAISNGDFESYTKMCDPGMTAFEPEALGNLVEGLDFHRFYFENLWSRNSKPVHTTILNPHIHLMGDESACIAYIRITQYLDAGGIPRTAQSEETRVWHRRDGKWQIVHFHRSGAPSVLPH
UniProt Q13555: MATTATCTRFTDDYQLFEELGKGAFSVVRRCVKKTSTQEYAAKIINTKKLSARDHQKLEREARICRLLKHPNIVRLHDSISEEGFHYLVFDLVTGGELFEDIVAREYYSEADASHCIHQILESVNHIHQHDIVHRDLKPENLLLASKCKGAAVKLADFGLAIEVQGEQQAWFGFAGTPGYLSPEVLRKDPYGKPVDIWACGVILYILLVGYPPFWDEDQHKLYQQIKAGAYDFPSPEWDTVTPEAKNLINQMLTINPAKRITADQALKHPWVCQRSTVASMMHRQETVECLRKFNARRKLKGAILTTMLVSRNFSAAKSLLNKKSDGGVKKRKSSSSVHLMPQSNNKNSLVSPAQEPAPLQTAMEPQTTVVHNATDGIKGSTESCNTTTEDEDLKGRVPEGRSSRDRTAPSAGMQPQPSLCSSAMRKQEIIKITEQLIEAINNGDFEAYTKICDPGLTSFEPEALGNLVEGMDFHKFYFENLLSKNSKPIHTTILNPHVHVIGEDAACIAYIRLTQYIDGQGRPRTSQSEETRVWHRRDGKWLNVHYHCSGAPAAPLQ
UniProt Q15131: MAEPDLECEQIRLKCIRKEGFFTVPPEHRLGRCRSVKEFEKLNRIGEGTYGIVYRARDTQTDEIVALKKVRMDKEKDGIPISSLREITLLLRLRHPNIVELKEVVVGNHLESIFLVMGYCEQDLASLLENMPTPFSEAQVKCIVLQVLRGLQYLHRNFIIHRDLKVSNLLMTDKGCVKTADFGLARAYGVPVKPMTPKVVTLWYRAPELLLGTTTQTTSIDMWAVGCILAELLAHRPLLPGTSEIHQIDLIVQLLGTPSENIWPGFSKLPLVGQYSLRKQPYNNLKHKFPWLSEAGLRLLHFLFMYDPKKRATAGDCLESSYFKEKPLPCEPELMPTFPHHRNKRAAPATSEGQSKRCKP
UniProt Q00526: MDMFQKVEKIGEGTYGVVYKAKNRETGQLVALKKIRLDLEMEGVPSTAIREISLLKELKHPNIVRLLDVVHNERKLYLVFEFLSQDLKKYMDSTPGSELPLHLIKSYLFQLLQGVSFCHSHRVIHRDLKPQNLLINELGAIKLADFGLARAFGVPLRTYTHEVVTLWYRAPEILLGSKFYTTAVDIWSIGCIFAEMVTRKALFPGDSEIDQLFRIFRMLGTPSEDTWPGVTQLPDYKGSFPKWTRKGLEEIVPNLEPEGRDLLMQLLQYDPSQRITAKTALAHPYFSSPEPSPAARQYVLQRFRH
UniProt Q00535, whole entry, looked up: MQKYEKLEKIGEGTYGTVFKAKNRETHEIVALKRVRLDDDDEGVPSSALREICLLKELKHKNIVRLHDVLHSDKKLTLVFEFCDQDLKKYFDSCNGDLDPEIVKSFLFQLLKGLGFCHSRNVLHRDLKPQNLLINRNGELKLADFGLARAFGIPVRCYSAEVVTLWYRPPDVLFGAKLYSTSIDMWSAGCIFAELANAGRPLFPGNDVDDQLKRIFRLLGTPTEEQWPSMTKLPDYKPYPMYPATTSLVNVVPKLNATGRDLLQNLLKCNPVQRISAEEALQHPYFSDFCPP
UniProt Q00534, whole entry: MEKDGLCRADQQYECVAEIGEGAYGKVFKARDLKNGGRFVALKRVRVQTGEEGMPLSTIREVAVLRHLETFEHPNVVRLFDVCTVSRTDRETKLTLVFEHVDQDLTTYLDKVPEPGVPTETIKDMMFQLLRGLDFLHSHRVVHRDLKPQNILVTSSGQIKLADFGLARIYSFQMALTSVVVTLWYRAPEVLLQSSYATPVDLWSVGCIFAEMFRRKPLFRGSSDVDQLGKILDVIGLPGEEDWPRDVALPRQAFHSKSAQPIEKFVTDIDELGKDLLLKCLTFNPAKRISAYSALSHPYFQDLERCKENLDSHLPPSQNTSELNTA
UniProt P50613: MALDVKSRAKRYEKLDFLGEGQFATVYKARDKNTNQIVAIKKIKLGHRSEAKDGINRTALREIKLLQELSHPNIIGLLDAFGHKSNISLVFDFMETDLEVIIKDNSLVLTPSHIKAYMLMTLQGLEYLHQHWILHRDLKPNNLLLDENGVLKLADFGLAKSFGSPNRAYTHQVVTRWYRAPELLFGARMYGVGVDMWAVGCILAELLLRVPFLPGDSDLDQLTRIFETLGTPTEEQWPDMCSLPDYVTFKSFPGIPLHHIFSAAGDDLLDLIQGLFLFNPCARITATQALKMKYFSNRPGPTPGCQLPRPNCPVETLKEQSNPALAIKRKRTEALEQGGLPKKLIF
UniProt P50750, whole entry: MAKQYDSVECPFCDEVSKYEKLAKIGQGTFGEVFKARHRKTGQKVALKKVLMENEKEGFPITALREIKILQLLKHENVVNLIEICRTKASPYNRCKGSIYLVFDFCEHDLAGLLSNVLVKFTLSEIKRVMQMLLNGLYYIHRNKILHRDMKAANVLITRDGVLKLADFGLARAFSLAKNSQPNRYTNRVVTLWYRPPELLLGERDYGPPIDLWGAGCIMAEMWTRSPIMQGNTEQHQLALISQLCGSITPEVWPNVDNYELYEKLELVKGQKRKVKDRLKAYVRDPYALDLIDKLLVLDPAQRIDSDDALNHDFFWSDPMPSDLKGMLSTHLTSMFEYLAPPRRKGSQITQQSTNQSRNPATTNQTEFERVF
UniProt P07333, whole entry: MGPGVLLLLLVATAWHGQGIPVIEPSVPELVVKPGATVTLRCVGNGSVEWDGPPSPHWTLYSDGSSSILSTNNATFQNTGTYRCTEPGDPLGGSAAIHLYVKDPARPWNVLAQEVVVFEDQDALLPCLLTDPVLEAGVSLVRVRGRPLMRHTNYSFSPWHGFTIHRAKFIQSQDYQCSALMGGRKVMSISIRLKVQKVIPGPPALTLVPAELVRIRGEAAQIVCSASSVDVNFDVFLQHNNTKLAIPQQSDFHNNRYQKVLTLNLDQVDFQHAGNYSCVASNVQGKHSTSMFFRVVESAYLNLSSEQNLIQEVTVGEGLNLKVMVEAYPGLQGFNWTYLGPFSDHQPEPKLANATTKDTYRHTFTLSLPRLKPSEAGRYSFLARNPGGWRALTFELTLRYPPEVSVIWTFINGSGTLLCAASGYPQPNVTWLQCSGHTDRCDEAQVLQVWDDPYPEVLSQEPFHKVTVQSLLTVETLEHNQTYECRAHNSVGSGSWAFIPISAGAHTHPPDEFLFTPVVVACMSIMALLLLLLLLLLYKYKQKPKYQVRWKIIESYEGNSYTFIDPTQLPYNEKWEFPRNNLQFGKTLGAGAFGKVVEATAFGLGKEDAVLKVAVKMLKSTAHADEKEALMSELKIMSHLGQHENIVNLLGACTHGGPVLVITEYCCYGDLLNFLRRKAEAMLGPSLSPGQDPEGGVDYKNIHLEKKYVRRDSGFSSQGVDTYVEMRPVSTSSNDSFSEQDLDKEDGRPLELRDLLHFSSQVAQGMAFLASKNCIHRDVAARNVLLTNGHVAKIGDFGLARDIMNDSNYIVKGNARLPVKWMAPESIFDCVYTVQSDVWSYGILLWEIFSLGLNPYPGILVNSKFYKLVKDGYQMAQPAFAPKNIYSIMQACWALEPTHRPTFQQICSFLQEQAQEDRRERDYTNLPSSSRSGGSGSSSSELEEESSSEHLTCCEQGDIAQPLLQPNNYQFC
UniProt P41240: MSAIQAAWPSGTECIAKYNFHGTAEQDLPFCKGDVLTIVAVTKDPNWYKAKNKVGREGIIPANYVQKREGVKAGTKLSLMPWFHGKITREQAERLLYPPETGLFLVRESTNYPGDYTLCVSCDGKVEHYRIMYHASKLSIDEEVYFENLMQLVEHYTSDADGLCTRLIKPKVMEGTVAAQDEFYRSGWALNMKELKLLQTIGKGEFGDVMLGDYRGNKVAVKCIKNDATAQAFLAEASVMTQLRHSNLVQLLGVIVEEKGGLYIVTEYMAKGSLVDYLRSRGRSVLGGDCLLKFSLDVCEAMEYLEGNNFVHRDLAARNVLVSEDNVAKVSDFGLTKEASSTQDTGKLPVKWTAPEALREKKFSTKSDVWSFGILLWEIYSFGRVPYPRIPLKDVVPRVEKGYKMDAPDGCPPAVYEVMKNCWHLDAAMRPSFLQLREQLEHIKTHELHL
UniProt P48729: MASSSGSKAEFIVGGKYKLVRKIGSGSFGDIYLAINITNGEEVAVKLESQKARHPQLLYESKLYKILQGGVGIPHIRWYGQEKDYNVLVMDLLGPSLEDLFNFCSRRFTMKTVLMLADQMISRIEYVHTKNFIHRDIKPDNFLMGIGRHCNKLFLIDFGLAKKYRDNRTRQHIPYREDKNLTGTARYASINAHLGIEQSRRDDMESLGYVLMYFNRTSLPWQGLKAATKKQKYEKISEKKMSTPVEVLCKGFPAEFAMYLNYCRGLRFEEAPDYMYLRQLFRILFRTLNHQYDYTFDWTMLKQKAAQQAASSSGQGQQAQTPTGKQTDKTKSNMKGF
UniProt P48730: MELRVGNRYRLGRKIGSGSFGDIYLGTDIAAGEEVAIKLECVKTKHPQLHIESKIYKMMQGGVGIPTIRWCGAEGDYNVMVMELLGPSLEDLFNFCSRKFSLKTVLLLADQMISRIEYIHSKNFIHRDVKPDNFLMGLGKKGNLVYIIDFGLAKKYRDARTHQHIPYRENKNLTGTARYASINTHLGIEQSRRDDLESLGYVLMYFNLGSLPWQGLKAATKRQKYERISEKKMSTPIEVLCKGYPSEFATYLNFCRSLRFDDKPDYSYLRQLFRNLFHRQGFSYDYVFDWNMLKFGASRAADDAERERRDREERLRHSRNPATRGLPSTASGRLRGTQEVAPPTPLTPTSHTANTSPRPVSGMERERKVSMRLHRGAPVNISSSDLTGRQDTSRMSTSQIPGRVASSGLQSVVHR
UniProt Q92630: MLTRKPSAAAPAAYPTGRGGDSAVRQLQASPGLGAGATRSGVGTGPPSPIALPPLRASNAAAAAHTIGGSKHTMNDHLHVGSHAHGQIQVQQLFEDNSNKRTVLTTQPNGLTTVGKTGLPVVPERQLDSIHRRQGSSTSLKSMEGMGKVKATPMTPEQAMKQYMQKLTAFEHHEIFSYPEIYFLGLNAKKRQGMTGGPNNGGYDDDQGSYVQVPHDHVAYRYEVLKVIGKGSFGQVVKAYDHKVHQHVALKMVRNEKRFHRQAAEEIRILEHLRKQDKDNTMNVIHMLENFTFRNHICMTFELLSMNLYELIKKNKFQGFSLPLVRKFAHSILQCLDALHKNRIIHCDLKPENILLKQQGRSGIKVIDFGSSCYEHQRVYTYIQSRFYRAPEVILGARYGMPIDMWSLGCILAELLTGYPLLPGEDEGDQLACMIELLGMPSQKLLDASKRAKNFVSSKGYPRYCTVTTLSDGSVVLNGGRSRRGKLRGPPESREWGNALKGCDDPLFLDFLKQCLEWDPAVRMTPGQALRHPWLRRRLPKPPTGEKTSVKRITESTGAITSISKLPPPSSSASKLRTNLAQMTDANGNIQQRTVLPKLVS

How the values were obtained:
Experiment in all cases: kinase-Nluc reporter destabilization hit call (1 = scored as downregulated) (binary); higher = compound decreases kinase abundance
Settings in all cases: K562; 2-18 h
[1] = tested on: BRAF_V600E
[2] = target: BTK (UniProt Q06187)
[3] = target: CAMK2A (UniProt Q9UQM7)
[4] = target: CAMK2G (UniProt Q13555)
[5] = target: CDK10 (UniProt Q15131)
[6] = target: CDK2 (UniProt P24941)
[7] = target: CDK3 (UniProt Q00526)
[8] = target: CDK4 (UniProt P11802)
[9] = target: CDK5 (UniProt Q00535)
[10] = target: CDK6 (UniProt Q00534)
[11] = target: CDK7 (UniProt P50613)
[12] = target: CDK9 (UniProt P50750)
[13] = target: CHEK2 (UniProt O96017)
[14] = target: CSF1R (UniProt P07333)
[15] = target: CSK (UniProt P41240)
[16] = target: CSNK1A1 (UniProt P48729)
[17] = target: CSNK1D (UniProt P48730)
[18] = target: DDR1 (UniProt Q08345)
[19] = target: DYRK1B (UniProt Q9Y463)
[20] = target: DYRK2 (UniProt Q92630)

Measured: kinase-Nluc reporter destabilization hit call

O=C(O)c1ccc(-c2c[nH]c3ncc(-c4ccccc4)cc23)cc1C1CCCC1 (2.5 µM)
inactive: [1] 0 | [2] 0 | [3] 0 | [4] 0 | [5] 0 | [6] 0 | [7] 0 | [8] 0 | [9] 0 | [10] 0 | [11] 0 | [12] 0 | [13] 0 | [14] 0 | [15] 0 | [16] 0 | [17] 0 | [18] 0 | [19] 0 | [20] 0

CCc1ccc(C(=O)COc2ccc(CC3SC(=O)NC3=O)cc2)nc1 (stereo not given) (10 µM)
inactive: [1] 0 | [2] 0 | [3] 0 | [4] 0 | [5] 0 | [6] 0 | [7] 0 | [8] 0 | [9] 0 | [10] 0 | [11] 0 | [12] 0 | [13] 0 | [14] 0 | [15] 0 | [16] 0 | [17] 0 | [18] 0 | [19] 0 | [20] 0

CCCCCCCC/C=C\CCCCCCCC(=O)NCC(=O)O [N-Oleoyl glycine] (10 µM)
inactive: [1] 0 | [2] 0 | [3] 0 | [4] 0 | [5] 0 | [6] 0 | [7] 0 | [8] 0 | [9] 0 | [10] 0 | [11] 0 | [12] 0 | [13] 0 | [14] 0 | [15] 0 | [16] 0 | [17] 0 | [18] 0 | [19] 0 | [20] 0

COc1cc(C(=O)N2CCC(N3CCN(C)CC3)CC2)ccc1Nc1ncc2c(n1)N(C)c1ccccc1C(=O)N2C (10 µM)
inactive: [1] 0 | [2] 0 | [3] 0 | [4] 0 | [5] 0 | [6] 0 | [7] 0 | [8] 0 | [9] 0 | [10] 0 | [11] 0 | [12] 0 | [13] 0 | [14] 0 | [15] 0 | [16] 0 | [17] 0 | [18] 0 | [19] 0 | [20] 0

CN(CC(=O)N(Cc1ccc(C2CCCCC2)cc1)c1ccc(C(=O)O)c(O)c1)S(=O)(=O)c1c(F)c(F)c(F)c(F)c1F (2.5 µM)
inactive: [1] 0 | [2] 0 | [3] 0 | [4] 0 | [5] 0 | [6] 0 | [7] 0 | [8] 0 | [9] 0 | [10] 0 | [11] 0 | [12] 0 | [13] 0 | [14] 0 | [15] 0 | [16] 0 | [17] 0 | [18] 0 | [19] 0 | [20] 0

Nc1cc(C(F)F)c(-c2nc(N3C4CCC3COC4)nc(N3C4CCC3COC4)n2)cn1 (2.5 µM)
inactive: [1] 0 | [2] 0 | [3] 0 | [4] 0 | [5] 0 | [6] 0 | [7] 0 | [8] 0 | [9] 0 | [10] 0 | [11] 0 | [12] 0 | [13] 0 | [14] 0 | [15] 0 | [16] 0 | [17] 0 | [18] 0 | [19] 0 | [20] 0

C[C@H]1[C@H](OC(=O)CCC(=O)O)O[C@@H]2O[C@@]3(C)CC[C@H]4[C@H](C)CC[C@@H]1[C@@]24OO3 [Artesunate] (2.5 µM)
inactive: [1] 0 | [2] 0 | [3] 0 | [4] 0 | [5] 0 | [6] 0 | [7] 0 | [8] 0 | [9] 0 | [10] 0 | [11] 0 | [12] 0 | [13] 0 | [14] 0 | [15] 0 | [16] 0 | [17] 0 | [18] 0 | [19] 0 | [20] 0

O=C(Nc1ccc(Cl)cc1)C1CCCN(C(=O)c2cccc(-c3ccco3)c2)C1 (stereo not given) (2.5 µM)
inactive: [1] 0 | [2] 0 | [3] 0 | [4] 0 | [5] 0 | [6] 0 | [7] 0 | [8] 0 | [9] 0 | [10] 0 | [11] 0 | [12] 0 | [13] 0 | [14] 0 | [15] 0 | [16] 0 | [17] 0 | [18] 0 | [19] 0 | [20] 0

Retrieved by structure from the entries so far (two):
Nc1cc(C(F)F)c(-c2nc(N3C4CCC3COC4)nc(N3C4CCC3COC4)n2)cn1 (2.5 µM)
inactive: [1] 0 | [2] 0 | [3] 0 | [4] 0 | [5] 0 | [6] 0 | [7] 0 | [8] 0 | [9] 0 | [10] 0 | [11] 0 | [12] 0 | [13] 0 | [14] 0 | [15] 0 | [16] 0 | [17] 0 | [18] 0 | [19] 0 | [20] 0

O=C(Nc1ccc(Cl)cc1)C1CCCN(C(=O)c2cccc(-c3ccco3)c2)C1 (stereo not given) (2.5 µM)
inactive: [1] 0 | [2] 0 | [3] 0 | [4] 0 | [5] 0 | [6] 0 | [7] 0 | [8] 0 | [9] 0 | [10] 0 | [11] 0 | [12] 0 | [13] 0 | [14] 0 | [15] 0 | [16] 0 | [17] 0 | [18] 0 | [19] 0 | [20] 0

The listing continues.

C[C@@H]1C[C@H]2O[C@@]3(O[C@@H]2C(C)(C)O)[C@H](O)[C@@]2(C)[C@@H]4CC[C@H]5C(C)(C)[C@@H](O[C@@H]6OC[C@H](O)[C@H](O)[C@H]6O)CC[C@@]56C[C@@]46CC[C@]2(C)[C@@H]13 [Cimiracemoside C] (10 µM)
inactive: [1] 0 | [2] 0 | [3] 0 | [4] 0 | [5] 0 | [6] 0 | [7] 0 | [8] 0 | [9] 0 | [10] 0 | [11] 0 | [12] 0 | [13] 0 | [14] 0 | [15] 0 | [16] 0 | [17] 0 | [18] 0 | [19] 0 | [20] 0

N#C/C(=C\c1ccc2oc(=O)[nH]c2c1)C(=O)c1ccc(O)c(O)c1 (10 µM)
inactive: [1] 0 | [2] 0 | [3] 0 | [4] 0 | [5] 0 | [6] 0 | [7] 0 | [8] 0 | [9] 0 | [10] 0 | [11] 0 | [12] 0 | [13] 0 | [14] 0 | [15] 0 | [16] 0 | [17] 0 | [18] 0 | [19] 0 | [20] 0

COc1ccc2c(Oc3ccc(NC(=O)c4c(C)n(CC(C)(C)O)n(-c5ccccc5)c4=O)cc3F)ccnc2c1 (2.5 µM)
inactive: [1] 0 | [2] 0 | [3] 0 | [4] 0 | [5] 0 | [6] 0 | [7] 0 | [8] 0 | [9] 0 | [10] 0 | [11] 0 | [12] 0 | [13] 0 | [14] 0 | [15] 0 | [16] 0 | [17] 0 | [18] 0 | [19] 0 | [20] 0

COc1cc(N2CCC(N(C)C)CC2)ccc1Nc1ncc(Cl)c(Nc2ccccc2P(C)(C)=O)n1 (2.5 µM)
inactive: [1] 0 | [2] 0 | [3] 0 | [4] 0 | [5] 0 | [6] 0 | [7] 0 | [8] 0 | [9] 0 | [10] 0 | [11] 0 | [12] 0 | [13] 0 | [14] 0 | [15] 0 | [16] 0 | [17] 0 | [18] 0 | [19] 0 | [20] 0

Cn1ncc(Cl)c1-c1cc(C(=O)N[C@H](CN)Cc2ccc(F)c(F)c2)sc1Cl (10 µM)
inactive: [1] 0 | [2] 0 | [3] 0 | [4] 0 | [5] 0 | [6] 0 | [7] 0 | [8] 0 | [9] 0 | [10] 0 | [11] 0 | [12] 0 | [13] 0 | [14] 0 | [15] 0 | [16] 0 | [17] 0 | [18] 0 | [19] 0 | [20] 0

Nc1nc2cc(-c3ccc4ncc(C(=O)N5CCOCC5)n4c3)ccc2o1 [Serabelisib] (10 µM)
inactive: [1] 0 | [2] 0 | [3] 0 | [4] 0 | [5] 0 | [6] 0 | [7] 0 | [8] 0 | [9] 0 | [10] 0 | [11] 0 | [12] 0 | [13] 0 | [14] 0 | [15] 0 | [16] 0 | [17] 0 | [18] 0 | [19] 0 | [20] 0

C=CC(=O)N1CCC(Oc2cc3c(Nc4ccc(Cl)c(Cl)c4F)ncnc3cc2OC)CC1 [Poziotinib] (2.5 µM)
inactive: [1] 0 | [2] 0 | [3] 0 | [4] 0 | [5] 0 | [6] 0 | [7] 0 | [8] 0 | [9] 0 | [10] 0 | [11] 0 | [12] 0 | [13] 0 | [14] 0 | [15] 0 | [16] 0 | [17] 0 | [18] 0 | [19] 0 | [20] 0

CN(C)Cc1cccc(N=C(c2ccccc2)c2c(O)[nH]c3cc(C(=O)N(C)C)ccc23)c1 (10 µM)
inactive: [1] 0 | [2] 0 | [3] 0 | [4] 0 | [5] 0 | [6] 0 | [7] 0 | [8] 0 | [9] 0 | [10] 0 | [11] 0 | [12] 0 | [13] 0 | [14] 0 | [15] 0 | [16] 0 | [17] 0 | [18] 0 | [19] 0 | [20] 0

CC1(N)CCN(c2cnc3c(-c4cccc(Cl)c4Cl)[nH]nc3n2)CC1 (2.5 µM)
inactive: [1] 0 | [2] 0 | [3] 0 | [4] 0 | [5] 0 | [6] 0 | [7] 0 | [8] 0 | [9] 0 | [10] 0 | [11] 0 | [12] 0 | [13] 0 | [14] 0 | [15] 0 | [16] 0 | [17] 0 | [18] 0 | [19] 0 | [20] 0

C=C(F)C(=O)N1CCN(c2nc(OC[C@@H]3CCCN3C)nc3c2CCN(c2cccc4cccc(Cl)c24)C3)C[C@@H]1CC#N (2.5 µM)
inactive: [1] 0 | [2] 0 | [3] 0 | [4] 0 | [5] 0 | [6] 0 | [7] 0 | [8] 0 | [9] 0 | [10] 0 | [11] 0 | [12] 0 | [13] 0 | [14] 0 | [15] 0 | [16] 0 | [17] 0 | [18] 0 | [19] 0 | [20] 0
